Source: EP0226973A2, “4-Bis(2'-hydroxyethyl)amino-1-(3'-hydroxypropyl)amino-2-nitro-benzene, process for its preparation and means for dyeing hair” (Wella Aktiengesellschaft, priority 1985, dated 1987)

Experiment: Hair dyeing test on human hair
Text: Ihre Anwendung erfolgt in üblicher Weise durch Aufbringen einer für die Haarfärbung ausreichenden Menge des Mittels auf die Haare, mit denen es eine Zeitlang, vorzugsweise zwischen 5 und 30 Minuten, in Berührung bleibt. Anschlie-ßend werden die Haare mit Wasser, gegebenenfalls noch mit einer schwachen organischen Säure, gespült und sodann getrocknet. Als schwache organische Säure können beispielsweise Essigsäure, Zitronensäure, Weinsäure und ähnliche Verwendung finden.
Die Anwendung dieser Haarfärbemittel mit zusätzlicher Festigung erfolgt in bekannter und üblicher Weise durch Befeuchten des Haares mit dem Festiger, Festlegen (Einlegen) des Haares zur Frisur und anschließende Trocknung.
Das Haarfärbemittel wird auf weiße menschliche Haare aufgetragen und l0 Minuten lang einwirken gelassen.
Weiße menschliche Haare werden mit der festigenden Färbelösung zur Frisur eingelegt und getrocknet.
Das Haarfärbemittel wird auf graue menschliche Haare aufgetragen und und 20 Minuten lang einwirken gelassen.
50 g des vorstehenden Haarfärbemittels werden auf graue menschliche Haare aufgetragen und nach einer Einwirkungszeit von 20 Minuten mit Wasser ausgespült.

Row | Structure (SMILES) | Intensität der Färbung der Haare (compared with Farbstoff (IV)) | Farbtöne bei Färbungen (äquimolare Konzentrationen, compared with Farbstoff (IV)) | Ausspülen beim Waschen der Haare | Farbechtheit
1 | O=[N+]([O-])c1cc(N(CCO)CCO)ccc1NCCCO [Farbstoff (I), 4-Bis(2′-hydroxyethyl)amino-l-(3′-hydroxypropyl)amino-2-nitro-benzol] | viel intensiver | deutlich intensivere Farbtöne | – | –
2 | O=[N+]([O-])c1cc(N(CCO)CCO)ccc1NCCO [Farbstoff (IV), 4-Bis(2′-hydroxyethyl)amino-l-(2′-hydroxyethyl)amino-2-nitro-benzols] | – | – | sehr schnell wieder ausgespült | nicht zufriedenstellend
